PubChem BioAssay AID1259308 | NCATS | 2017
Test: 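Genes whose loss raises luciferase production in HEK293 cells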 (primary screen). System: human HEK293 embryonic kidney cells stably expressing firefly luciferase (HEK-CMV-Luc2-Hygro). Knock-down reagent: single siRNA against human genes, 0.8 pmol siRNA per well. Duration: 72 h. Detection: 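Reporter luminescence and viable-cell signal on separate replicate plates, given as percent of non-targeting control and median/MAD z-scores, plus per-cell luciferase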. Direction: total luciferase, z-score and total luciferase, % of control: higher = more reporter protein produced; luciferase per cell, z-score: higher = more reporter output per viable cell; viable cells, % of control: higher = more viable cells. Rule for the call: 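An siRNA counts as active if its total luciferase robust z-score exceeds 3; genes with two or more such siRNAs out of three were retested with fresh siRNAs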. Meaning of the calls: active = raised luciferase; inactive = no rise.
Here is one part, drawn at random, of about 59,000 deposited reagents. Of all reagents, about 1,510 (2.6%) are marked active. 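Calls use total luciferase alone and ignore viability, so some active siRNAs may act by altering cell number.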 Reagents against one gene are numbered here.

| target | siRNA no. | total luciferase, z-score | total luciferase, % of control | luciferase per cell, z-score | viable cells, % of control | activity call |
| --- | --- | --- | --- | --- | --- | --- |
| TNNT2 (GeneID 7139) | 1 | -0.64 | 69.2 | 1.2 | 56.4 | inactive |
| TNNT2 (GeneID 7139) | 2 | 1.24 | 106 | 1.09 | 89.3 | inactive |
| TNNT2 (GeneID 7139) | 3 | 0.428 | 90.4 | 0.319 | 92.9 | inactive |
| CEP70 (GeneID 80321) | 1 | 2.13 | 124 | 1.47 | 94.4 | inactive |
| CEP70 (GeneID 80321) | 2 | -0.191 | 78.1 | -0.839 | 109 | inactive |
| CEP70 (GeneID 80321) | 3 | 0.737 | 96.6 | -0.203 | 114 | inactive |
| CNTN6 (GeneID 27255) | 1 | 0.954 | 101 | 0.702 | 93.7 | inactive |
| CNTN6 (GeneID 27255) | 2 | 0.385 | 89.5 | 0.598 | 85.5 | inactive |
| CNTN6 (GeneID 27255) | 3 | -0.222 | 77.5 | -0.218 | 91.7 | inactive |
| RBP2 (GeneID 5948) | 1 | -0.556 | 70.8 | -0.923 | 101 | inactive |
| RBP2 (GeneID 5948) | 2 | -1.15 | 59 | -1.73 | 104 | inactive |
| RBP2 (GeneID 5948) | 3 | -0.338 | 75.2 | -0.377 | 92.8 | inactive |
| GRPEL2 (GeneID 134266) | 1 | -0.237 | 77.2 | -0.0442 | 87.2 | inactive |
| GRPEL2 (GeneID 134266) | 2 | 0.853 | 98.8 | 0.95 | 86 | inactive |
| GRPEL2 (GeneID 134266) | 3 | -1.45 | 53 | -1.02 | 77.4 | inactive |
| OR3A2 (GeneID 4995) | 1 | 0.0912 | 83.7 | -0.273 | 101 | inactive |
| OR3A2 (GeneID 4995) | 2 | -0.196 | 78 | 0.683 | 72.8 | inactive |
| OR3A2 (GeneID 4995) | 3 | 0.194 | 85.8 | 0.592 | 82 | inactive |
| SYT2 (GeneID 127833) | 1 | 1.24 | 107 | 0.618 | 101 | inactive |
| SYT2 (GeneID 127833) | 2 | 0.159 | 85 | 0.00409 | 94.9 | inactive |
| SYT2 (GeneID 127833) | 3 | 1.12 | 104 | 2.9 | 54.2 | inactive |
| CASP5 (GeneID 838) | 1 | -1.21 | 57.9 | 0.189 | 61.5 | inactive |
| CASP5 (GeneID 838) | 2 | -0.873 | 64.5 | 0.315 | 66.4 | inactive |
| CASP5 (GeneID 838) | 3 | -0.989 | 62.2 | -0.894 | 88 | inactive |

2 consecutive records already listed:
| target | siRNA no. | total luciferase, z-score | total luciferase, % of control | luciferase per cell, z-score | viable cells, % of control | activity call |
| --- | --- | --- | --- | --- | --- | --- |
| TNNT2 (GeneID 7139) | 1 | -0.64 | 69.2 | 1.2 | 56.4 | inactive |
| TNNT2 (GeneID 7139) | 2 | 1.24 | 106 | 1.09 | 89.3 | inactive |
